Measured values published in PMC5366886, “Structure of the Cyanuric Acid Hydrolase TrzD Reveals Product Exit Channel” (Scientific Reports, 2017).
No constants are given. Whether binding was seen depends on the method and setting. Some binding calls cover weakened binding; strength is not graded here.

Target: TrzD, a cyanuric acid hydrolase from Acidovorax citrulli (Acidovorax citrulli) (UniProt P0A3V4)
Assay: crystal structure; crystallised with 10 mM cyanuric acid, hanging drop, 20 °C; space group I222, one monomer in the asymmetric unit; tetramer assembly analysed with PISA; both purified

B1: TrzD, a cyanuric acid hydrolase from Acidovorax citrulli (enzyme, UniProt P0A3V4 1-370, looked up)
chain: MQAQVFRVPMSNPADVSGVAKLIDEGVIRAEEVVCVLGKTEGNGCVNDFTRGYTTLAFKVYFSEKLGVSRQEVGERIAFIMSGGTEGVMAPHCTIFTVQKTDNKQKTAAEGKRLAVQQIFTREFLPEEIGRMPQVTETADAVRRAMREAGIADASDVHFVQVKCPLLTAGRMHDAVERGHTVATEDTYESMGYSRGASALGIALALGEVEKANLSDEVITADYSLYSSVASTSAGIELMNNEIIVMGNSRAWGGDLVIGHAEMKDAIDGAAVRQALRDVGCCENDLPTVDELGRVVNVFAKAEASPDGEVRNRRHTMLDDSDINSTRHARAVVNAVIASIVGDPMVYVSGGSEHQGPAGGGPVAVIARTA
notes: TrzD, cyanuric acid hydrolase of Acidovorax citrulli; full-length trzD gene in pET28b(+); 370 amino acids, ~39.5 kDa; source: E. coli BL21 (DE3), purified (Ni-NTA, Superdex-200 gel filtration); not shown: His-tag, N-terminal, kept
With B1 the binding was “binds”.
